At least one structure is not confirmed: it was looked up by name or label, or the drawing left a doubt.
Columns and labels:
Assay in all cases: Checkerboard dirithromycin and sodium bicarbonate
Format in all cases: cell-based
[1] = tested on: multi-drug resistant clinical isolates of Pseudomonas aeruginosa; conditions: MDR clinical isolate of Pseudomonas aeruginosa
[2] = tested on: multi-drug resistant clinical isolates of Klebsiella pneumoniae; conditions: MDR clinical isolate of Klebsiella pneumoniae
[3] = tested on: multi-drug resistant clinical isolates of Acinetobacter baumannii; conditions: MDR clinical isolate of Acinetobacter baumannii

Measured: effect of bicarbonate on action of dirithromycin

CC[C@H]1OC(=O)[C@H](C)[C@@H](O[C@H]2C[C@@](C)(OC)[C@@H](O)[C@H](C)O2)[C@H](C)[C@@H](O[C@@H]2O[C@H](C)C[C@H](N(C)C)[C@H]2O)[C@](C)(O)C[C@@H](C)[C@@H]2N[C@@H](COCCOC)O[C@H]([C@H]2C)[C@]1(C)O [Dirithromycin]
bicarbonate was a potentiator: [1] | [2] | [3]

Source: patent US12678454B2, “Bicarbonate as a potentiator for antimicrobial agents” (priority 2017, dated 2026)
